For experiment [1], the target named is T1, G-protein Gnα11 (mouse (endogenous in HT22)) (UniProt P21278).
T1 sequence: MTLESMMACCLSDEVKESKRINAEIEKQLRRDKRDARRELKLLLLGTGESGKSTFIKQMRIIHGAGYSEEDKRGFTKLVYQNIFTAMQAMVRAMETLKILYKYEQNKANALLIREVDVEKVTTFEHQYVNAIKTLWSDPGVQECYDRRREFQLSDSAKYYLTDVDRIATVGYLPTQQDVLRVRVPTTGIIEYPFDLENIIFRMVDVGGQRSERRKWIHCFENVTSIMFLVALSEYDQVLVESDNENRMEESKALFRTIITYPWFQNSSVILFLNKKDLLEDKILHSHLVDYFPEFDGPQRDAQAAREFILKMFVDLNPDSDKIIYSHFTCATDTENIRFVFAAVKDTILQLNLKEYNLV
The experiment is described as follows: co-IP; HT22 cell lysate (IP Lysis/Wash Buffer) after T-BSA treatment; mouse anti-Gnα11 antibody or control mouse IgG overnight at 4 °C, Protein A/G magnetic beads; blot with rabbit anti-ZIP9 and mouse anti-Gnα11.

The target of experiment [2] is T1, G-protein Gnα11 (mouse (endogenous in HT22)). The experiment is described as follows: proximity ligation; Duolink PLA in fixed, permeabilised HT22 cells with rabbit anti-ZIP9 and mouse anti-Gnα11; cells treated with T-BSA after nc-shRNA, ZIP9-shRNA or Gnα11-shRNA.

Results are given in words; binding and its absence hold for the method and conditions named. In cells and extracts the contact can be indirect. Some entries that bind do so weakly or less than the wild type.

B1: G-protein-coupled receptor (GPCR)-zinc transporter ZIP9 (SLC39A9) (protein, UniProt Q8BFU1 1-308)
chain: MDDFLSISLLSVAMLVGCYVAGIIPLAVNFSEERLKLVTVLGAGLLCGTALAVIVPEGVHALYEEVLEGKHHQTSEMKQNGIASDKAAEISSVHEHEHSHDHTQLHAYIGVSLVLGFVFMLLVDQIGSSHVHSSDDPETARPSSSKITTTLGLVVHAAADGVALGAAASTSQTSVQLIVFVAIMLHKAPAAFGLVSFLMHAGLERNRIRKHLLVFALAAPAMSMLTYLGLSKSSKEALSEVNATGVAMLFSAGTFLYVATVHVLPEVGGMGHSHKPDTTGGRGLSRLEVAALVLGCLIPLILSIGHQH
Regarding B1, the binding result in experiment [1] and in experiment [2] was “binds” each time.

(Values after PMC6520003.)
